Results from PMC12442697.
Results are given in words; binding and its absence hold for the method and conditions named. Binding seen in cells or lysates may run through a third protein. Some entries that bind do so weakly or less than the wild type.

Sequences of proteins named here, by UniProt entry; tags and fusion partners are left off.
UniProt O70468: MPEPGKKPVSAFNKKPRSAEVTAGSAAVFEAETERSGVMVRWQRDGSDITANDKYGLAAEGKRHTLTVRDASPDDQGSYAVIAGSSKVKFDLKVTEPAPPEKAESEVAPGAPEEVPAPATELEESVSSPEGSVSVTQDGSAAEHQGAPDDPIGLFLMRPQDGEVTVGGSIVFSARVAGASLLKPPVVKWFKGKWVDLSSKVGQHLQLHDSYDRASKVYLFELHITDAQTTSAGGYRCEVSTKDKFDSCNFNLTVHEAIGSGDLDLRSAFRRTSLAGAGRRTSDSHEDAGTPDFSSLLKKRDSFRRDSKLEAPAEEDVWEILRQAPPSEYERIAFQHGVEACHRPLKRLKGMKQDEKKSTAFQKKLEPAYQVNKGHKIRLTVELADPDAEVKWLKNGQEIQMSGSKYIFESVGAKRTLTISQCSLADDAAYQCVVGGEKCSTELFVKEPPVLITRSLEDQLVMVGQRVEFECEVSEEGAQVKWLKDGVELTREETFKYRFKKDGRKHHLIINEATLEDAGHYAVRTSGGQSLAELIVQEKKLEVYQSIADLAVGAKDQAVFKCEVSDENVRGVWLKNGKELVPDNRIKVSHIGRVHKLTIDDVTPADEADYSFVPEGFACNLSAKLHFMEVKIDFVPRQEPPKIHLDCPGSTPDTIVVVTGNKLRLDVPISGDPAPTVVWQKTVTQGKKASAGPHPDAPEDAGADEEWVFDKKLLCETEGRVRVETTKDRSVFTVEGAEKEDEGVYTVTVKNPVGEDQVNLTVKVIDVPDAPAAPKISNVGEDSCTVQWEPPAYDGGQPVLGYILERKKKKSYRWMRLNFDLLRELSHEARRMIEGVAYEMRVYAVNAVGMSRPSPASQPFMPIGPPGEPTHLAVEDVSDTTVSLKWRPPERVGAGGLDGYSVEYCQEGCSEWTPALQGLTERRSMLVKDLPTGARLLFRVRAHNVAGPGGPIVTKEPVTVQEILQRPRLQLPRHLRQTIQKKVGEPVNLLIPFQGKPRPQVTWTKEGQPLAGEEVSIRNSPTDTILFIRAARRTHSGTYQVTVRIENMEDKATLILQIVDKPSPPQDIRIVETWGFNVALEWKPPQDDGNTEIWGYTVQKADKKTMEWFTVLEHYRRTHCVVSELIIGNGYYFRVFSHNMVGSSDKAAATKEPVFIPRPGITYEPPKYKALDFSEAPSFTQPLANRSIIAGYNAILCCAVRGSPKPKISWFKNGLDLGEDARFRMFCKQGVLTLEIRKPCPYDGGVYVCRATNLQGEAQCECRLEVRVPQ

Tests used:
[1] = target: protein kinase C alpha (PKC‐α) (mouse (endogenous in primary mouse cardiomyocytes)) (UniProt P20444); experiment: co-IP; endogenous proteins; lysate of neonatal mouse ventricular myocytes (pmCMs) in IP lysis buffer with protease/phosphatase inhibitors; 5 µg primary antibody on Protein A+G magnetic beads, 400 µg lysate, 4 °C overnight, washed with TBS; immunoblot; done in both directions
[2] = target: myosin‐binding protein‐C (MYBPC3) (mouse (endogenous in primary mouse cardiomyocytes)) (UniProt O70468); experiment: as above

binding [1]	binding [2]	Substance
binds	–	myosin‐binding protein‐C (MYBPC3) (from UniProt O70468 1-1270)
–	binds	protein kinase C alpha (PKC‐α) (from UniProt P20444 1-672) (enzyme)
